Laboratory results: PubChem BioAssay AID743121 (NCATS, 2013)
Shown is one part, drawn at random, of about 26,000 deposited reagents. Of all reagents, 167 (0.63%) were called active. 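Calls are per gene from RSA p-values that are not deposited; an individual active-marked siRNA can sensitise only weakly.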 Entries without a mark were called inactive. The numbers tell different reagents against one gene apart. Further read-outs or replicates are left out here. Reagent sequences are not shown.

- Screen: 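Partners whose loss is lethal together with topoisomerase I blockade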 (primary screen)
- Cells: MDA-MB-231 cells, a human breast cancer line
- Knock-down reagent: single siRNA against human genes, 20 nM siRNA (0.8 pmol per well)
- Timing: 120 h (drug added 48 h after transfection, read 72 h later)
- Treatment: camptothecin 20 nM (about EC30) for 72 h; vehicle 0.1% DMSO in parallel plates
- Read-out: 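Cell viability by ATP luminescence (CellTiter-Glo) as % of non-targeting siRNA wells, and the log2 ratio of viability without drug over viability with camptothecin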
- Reading the numbers: log2 vehicle/camptothecin viability: higher = stronger sensitisation to camptothecin
- Call rule: 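Each gene scored by redundant siRNA activity (RSA) over its individual siRNA ratios; a gene is called active at p < 0.001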

What is on record for SOCS2 (GeneID 8835) #1?
log2 vehicle/camptothecin viability: -0.411

Which result is listed for SOCS2 (GeneID 8835) #2?
log2 vehicle/camptothecin viability: -0.352

Which result is listed for SOCS2 (GeneID 8835) #3?
log2 vehicle/camptothecin viability: -0.135

Which result is listed for SOCS2 (GeneID 8835) #4?
log2 vehicle/camptothecin viability: -0.182

For ABCA5 (GeneID 23461) #1, how do the results read?
log2 vehicle/camptothecin viability: -0.207

With ABCA5 (GeneID 23461) #2, what does the deposit list?
log2 vehicle/camptothecin viability: -0.198

For ABCA5 (GeneID 23461) #3, what was measured?
log2 vehicle/camptothecin viability: -0.301

Which result is listed for ABCA5 (GeneID 23461) #4?
log2 vehicle/camptothecin viability: -0.186

For HTR3D (GeneID 200909) #1, how do the results read?
log2 vehicle/camptothecin viability: -0.0448

For HTR3D (GeneID 200909) #2, how do the results read?
log2 vehicle/camptothecin viability: 0.311

With HTR3D (GeneID 200909) #3, how do the results read?
log2 vehicle/camptothecin viability: -0.0736

Which result is listed for HTR3D (GeneID 200909) #4?
log2 vehicle/camptothecin viability: -0.0198

What did the screen give for MC4R (GeneID 4160) #1?
log2 vehicle/camptothecin viability: -0.491

For MC4R (GeneID 4160) #2, how do the results read?
log2 vehicle/camptothecin viability: 0.546

With MC4R (GeneID 4160) #3, what does the deposit list?
log2 vehicle/camptothecin viability: 0.164

How did the screen score MC4R (GeneID 4160) #4?
log2 vehicle/camptothecin viability: -0.149

How did the screen score NPHS1 (GeneID 4868) #1?
log2 vehicle/camptothecin viability: -0.742

What did the screen give for NPHS1 (GeneID 4868) #2?
log2 vehicle/camptothecin viability: -0.151

How did the screen score NPHS1 (GeneID 4868) #3?
log2 vehicle/camptothecin viability: -0.38

What is on record for NPHS1 (GeneID 4868) #4?
log2 vehicle/camptothecin viability: 0.334

Which result is listed for RAB17 (GeneID 64284) #1?
log2 vehicle/camptothecin viability: -0.21

For RAB17 (GeneID 64284) #2, how do the results read?
log2 vehicle/camptothecin viability: -0.0635

With RAB17 (GeneID 64284) #3, how do the results read?
log2 vehicle/camptothecin viability: -0.317

What is on record for RAB17 (GeneID 64284) #4?
log2 vehicle/camptothecin viability: -0.519

A few values from the entries so far:
For “log2 vehicle/camptothecin viability”, MC4R (GeneID 4160) #4 shows -0.149
Result for HTR3D (GeneID 200909) #3 under “log2 vehicle/camptothecin viability”: -0.0736
